Measured values reported in PubChem BioAssay AID1347075 (National Center for Advancing Translational Sciences (NCATS), 2019).
Among all 400,000 compounds or so, about 5,500 (1.4%) were called active. The shares of active, inactive and inconclusive entries below differ from those in the screen. Calls follow the shape of the dose curve; as a rule, active = well fitted cell-killing curve with a large enough effect; inconclusive = small, poorly fitted or top-dose-only effect, or effect the other way; inactive = flat fitted curve, though single readings scatter. Potencies of inconclusive entries are doubtful fits and often do not repeat.

test: qHTS assay for MDR1-selective chemotherapeutics: Primary screen using the parental adenocarcinoma cell KB-3-1; settings: KB-3-1 viability, CellTiter-Glo ATP luminescence, 72 h; activity change, negative = cytotoxic: at 46.1 µM (top of the series); also: nearly all actives have a fitted effect of over 60% in size
How it was run: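 Parental KB-3-1 viability, qHTS format: 72 h compound exposure, 37 °C; CellTiter-Glo; media-only wells and DMSO plates as controls; concentration-effect fits on corrected data.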
% is scaled to controls: 0 for no effect and ±100 for the full control effect; potency is read from the fitted curve at half-maximal effect.

| Structure (SMILES) | Potency | activity change, negative = cytotoxic |
| --- | --- | --- |
| CCn1cc(CNC(=O)c2cc(COc3ccc(F)cc3Cl)on2)cn1 | inconclusive: 23.1 µM [cytotoxic, single point] | – |
| Cc1cccc(NC(=O)Oc2ccc(Cl)c3cccnc23)c1 | inconclusive: 20.6 µM [cytotoxic, single point] | – |
| O=C(NCCC1CCCCN1S(=O)(=O)c1ccc(Cl)cc1)C(=O)NCc1ccncc1 (centres undefined) | inactive | – |
| CCOc1ccc(-c2[nH]ncc2-c2ccc(OC)c(OC)c2)c(O)c1 | inconclusive: 3.26 µM [cytotoxic, partial curve, poor fit] | – |
| Cc1oc2c(c1C(=O)N1CCC(C)CC1)C(=O)c1ccccc1C2=O | active: 20.6 µM | – |
| NC(=S)N=Nc1c(O)n(Cc2ccc(Br)cc2)c2ccccc12 | active: 3.26 µM | – |
| C[C@@]12CCC=C[C@H]1[C@H](c1ccc3ccccc3c1Br)N(Cc1ccccc1)C2=O | inconclusive: 29.1 µM [cytotoxic, single point] | – |
| CN(C)c1ccc(/C=C2\C=Cc3ccccc32)c(Cl)c1 | inconclusive: 29.1 µM [cytotoxic, single point] | – |
| Cc1cc2c(cc1C)CSC(c1ccccc1O)SC2 | inconclusive: 29.1 µM [cytotoxic, single point] | – |
| O=C(COC(=O)c1cc([N+](=O)[O-])ccc1Cl)NC1CCCC1 | inconclusive: 25.9 µM [cytotoxic, single point] | – |
| CCN(CC(=O)NCc1ccc2c(c1)OCO2)S(=O)(=O)c1ccc(F)cc1 | inconclusive: 23.1 µM [rising, partial curve, poor fit] | – |
| CC1CCN(c2cc3c(cc2F)c(=O)c(S(=O)(=O)c2ccc(Cl)cc2)cn3C)CC1 | inactive | – |
| CN(C(=O)c1cc(COc2ccc(F)cc2Cl)on1)C1CCOC1 (centres undefined) | inactive | – |
| CCn1cc(C(=O)N2CCN(c3cc(Cl)ccc3C)CC2)c(=O)c2cc(S(=O)(=O)N3CCOCC3)ccc21 | inconclusive: 10.3 µM [cytotoxic, partial curve, poor fit] | – |
| CCCn1cnnc1CNC(=O)[C@H]1O[C@@H](n2ccc(=O)[nH]c2=O)[C@H](O)[C@@H]1O | inactive | – |
| CCCN(CC(=O)Nc1ccc(C(N)=O)cc1)CC(=O)Nc1ccccc1C | inconclusive: 20.6 µM [cytotoxic, single point] | – |
| CC(C)CCNC(=O)c1cn(C)c2ccc(S(=O)(=O)N3CCCC3)cc2c1=O | inconclusive: 5.17 µM [rising, full curve, poor fit] | – |
| COc1ccccc1N1CCN(CC(=O)c2c(C)[nH]c3ccccc23)CC1 | inconclusive: 0.0731 µM [cytotoxic, full curve] | – |
| COc1cc(OC)cc(C(=O)Nc2ccc(N3CCN(C(=O)c4cccs4)CC3)cc2)c1 | active: 7.31 µM | – |
| CC(=O)c1cccc(N(C(=O)c2ccco2)C(C(=O)NC2CCCC2)c2ccncc2)c1 (centres undefined) | inactive | – |
| COc1ccccc1NC(=O)c1ccc(NC(=O)COC(=O)C2CCCCC2)cc1 | inconclusive: 8.2 µM [rising, partial curve, poor fit] | – |
| Cc1nnc(SCC(=O)NC2CC2)n1-c1ccccc1 | inactive | – |
| CC/C(=N/NC(=O)c1ccc2c(c1)OCO2)c1ccccc1O | inconclusive: 29.1 µM [cytotoxic, single point] | – |

| Structure (SMILES) | Potency | activity change, negative = cytotoxic |
| --- | --- | --- |
| CC[C@]1(O)CC2CN(CCc3c([nH]c4ccccc34)[C@@](C(=O)OC)(c3cc4c(cc3OC)N(C)[C@H]3[C@@](O)(C(=O)OC)[C@H](OC(C)=O)[C@]5(CC)C=CCN6CC[C@]43[C@@H]65)C2)C1 (some centres undefined) | active: 0.0231 µM | – |
| CCc1nc2ccc(C(=O)NC(C)(C)C)cn2c1N(CC)Cc1cccc(Br)c1 | inconclusive: 25.9 µM [cytotoxic, single point] | – |
| Cc1cnc(CN(C)C(=O)c2ccc3oc(Cc4ccccc4)nc3c2)[nH]1 | inactive | – |
| CC1(C(=O)NCc2cccs2)Cc2c(-c3cccc(C(F)(F)F)c3)ccnc2O1 (centres undefined) | inconclusive: 18.4 µM [cytotoxic, single point] | – |
| Cc1ccc2c(=O)n3c(nc2c1)C(Cc1ccc(O)cc1)NC(=O)c1cc2ccccc2cc1-3 (centres undefined) | active: 16.4 µM | – |
| C[C@@H]1C(c2cccc(Cl)c2)=NN(c2ccc(Br)cc2)[C@H]1C(=O)N1CCOC1=O | inactive | – |
| CCN1CCN(C(CNS(=O)(=O)c2ccc(Br)cc2)c2cccnc2)CC1 (centres undefined) | inactive | – |
| NC(=O)C1CCN(C(=O)NC2CC(=O)N(c3ccc4c(c3)OCCO4)C2)CC1 (centres undefined) | inconclusive: 20.6 µM [rising, single point] | – |
| CNS(=O)(=O)c1ccc(NC(=O)c2cnn3c(C(F)F)cc(-c4ccccc4)nc23)cc1 | inconclusive: 29.1 µM [cytotoxic, single point] | – |
| CCOC(=O)N(C)C[C@@H]1OCc2cn(nn2)CCCC(=O)N([C@@H](C)CO)C[C@H]1C | inconclusive: 25.9 µM [rising, single point] | – |
| CC1CC=C2C(C#N)=C(N)C(C#N)(C#N)C(c3cccs3)C2C1 (centres undefined) | inconclusive: 18.4 µM [cytotoxic, partial curve, poor fit] | – |
| CCOC(=O)N1CCN(c2ccccc2OC)CC1 | inactive | – |
| CN(C1CCCCC1)S(=O)(=O)c1ccc2c(c1)c(=O)c(C(=O)NCc1ccccc1Cl)cn2C | inconclusive: 9.2 µM [rising, partial curve] | – |
| CCOc1ccc(C(=O)CCN2CCOCC2)cc1 | – | inconclusive: -30.9% [cytotoxic] |
| Cc1ccc(NC(=S)N2CCN(c3ccccn3)CC2)c(C)c1 | inconclusive: 11.6 µM [rising, partial curve] | – |
| Cc1cc(C)n(CC(O)CN(c2cccc([N+](=O)[O-])c2)S(=O)(=O)c2ccccc2)n1 (centres undefined) | inactive | – |
| Cc1ccc2onc(CNC(=O)Nc3ccccc3C#N)c2c1 | inactive | – |
| COCCCN1C(=O)C(CC(=O)NC2CC2)CC(C(=O)N(C(C)C)C(C)C)=C1C (centres undefined) | inactive | – |
| CN1C2CCC1CC(NS(=O)(=O)c1cccc(C(F)(F)F)c1)C2 (centres undefined) | – | inconclusive: 1.2% |
| CCc1noc(C)c1C(=O)Nc1cc(S(=O)(=O)N2CCOCC2)ccc1OCC(F)(F)F | inactive | – |
| NC(=O)Nc1ccc(/C=C2\C=Cc3ccccc32)cc1 | inconclusive: 20.6 µM [cytotoxic, single point] | – |
| CCOc1cc2[nH]c(=S)n(CCc3ccc(OC)c(OC)c3)c(=O)c2cc1OCC | inconclusive: 35.5 µM [cytotoxic, single point] | – |
| COc1ccc(C2=Nc3ccccc3OC2)cc1 | inactive | – |

| Structure (SMILES) | Potency | activity change, negative = cytotoxic |
| --- | --- | --- |
| CC(Nc1nc(-c2ccc(F)cc2)cs1)c1nc2cc(Cl)c(N3CCCCC3)cc2n1CCCO (centres undefined) | inconclusive: 29.1 µM [cytotoxic, single point] | – |
| c1coc(-c2cc3nc(NCc4ccc5c(c4)OCO5)ccn3n2)c1 | inactive | – |
| COc1cccc2c1C(=O)c1c(O)c3c(c(O)c1C2=O)CC(O)(C(C)=O)CC3OC1CC(N(C)C)C(O)C(C)O1 (centres undefined) | inconclusive: 0.92 µM [cytotoxic, full curve, poor fit] | – |
| Cc1ccc(N/C=C/C(=O)c2sc(-c3ccccc3)nc2C)cc1 | inconclusive: 16.4 µM [cytotoxic, single point] | – |
| COc1ccccc1C(=O)N1CCN(C(=O)c2oc3c(C)c(C)ccc3c2C)CC1 | inconclusive: 9.2 µM [cytotoxic, partial curve, poor fit] | – |
| O=C(Nc1cc(OC(=O)C(F)(F)F)c2nonc2c1OC(=O)C(F)(F)F)C(F)(F)F | inconclusive: 10.3 µM [cytotoxic, partial curve] | – |
| S=C(NCc1ccc(Cl)cc1)Nc1ccncc1 | inconclusive: 9.2 µM [cytotoxic, partial curve] | – |
| CCOc1ccccc1NC(=S)Nc1ccccc1F | inactive | – |
| Cn1c(N)c(C(=O)COC(=O)c2ccc3c(c2)C(=O)N(c2ccc(Cl)cc2)C3=O)c(=O)n(C)c1=O | inactive | – |
| CCOc1ccc(NC(=O)N2CCN(C(=O)c3nsc4ccccc34)CC2)cc1 | inactive | – |
| Cc1ccc(-c2nn(-c3ccccc3)cc2CSC(=N)N)cc1 | inconclusive: 29.1 µM [cytotoxic, single point] | – |
| CC(C)c1ccc(C2NC(=O)NC3=C2CCc2ccccc23)cc1 (centres undefined) | active: 14.6 µM | – |
| CC1(C(=O)NCc2ccccc2)CN(S(C)(=O)=O)CC(=O)N1CCc1ccc(O)cc1 (centres undefined) | inactive | – |
| CC1CC(C)CN(CCCNS(=O)(=O)c2ccc3c(c2)oc(=O)n3C)C1 (centres undefined) | inconclusive: 20.6 µM [rising, partial curve, poor fit] | – |
| Cc1nc2ccccc2n1CC(O)COc1ccccc1Cl (centres undefined) | inactive | – |
| CC1(C(=O)NCc2ccccc2)Cc2c(-c3ccc4c(c3)OCO4)ccnc2O1 (centres undefined) | active: 4.61 µM | – |
| Cc1ccc(/C=N/NC(=S)Nc2cccc(S(=O)(=O)N(C)C)c2)o1 | inconclusive: 25.9 µM [cytotoxic, single point] | – |
| OC(CN1CCN(c2ccccc2Cl)CC1)c1ccccc1 (centres undefined) | inconclusive: 20.6 µM [cytotoxic, single point] | – |
| C=CCC[C@@H](Cc1ccc(F)cc1)C(=O)OC[C@@H](NC(=O)[C@H](CC=C)CC(=O)N(CCO)Cc1ccccc1)c1ccccc1 | inconclusive: 25.9 µM [cytotoxic, single point] | – |
| Cc1ccc(NC(=O)CSc2nccn2-c2ccccc2)cc1 | inactive | – |
| CC1CCC(C(C)C)C(OCC(O)CN2CCN(Cc3ccccc3)CC2)C1 (centres undefined) | inconclusive: 20.6 µM [cytotoxic, single point] | – |
| CCCCCc1ccc(C2=NNC(=O)CC2)cc1 | inconclusive: 6.51 µM [cytotoxic, partial curve, poor fit] | – |
| Cc1c(C(C)C)c(=O)n(-c2ccc(S(=O)(=O)NC3CCCCC3)cc2)n1C | inconclusive: 4.61 µM [cytotoxic, full curve, poor fit] | – |

For reference, some entries already given:

| Structure (SMILES) | Potency | activity change, negative = cytotoxic |
| --- | --- | --- |
| Cn1c(N)c(C(=O)COC(=O)c2ccc3c(c2)C(=O)N(c2ccc(Cl)cc2)C3=O)c(=O)n(C)c1=O | inactive | – |
| CCOc1ccc(NC(=O)N2CCN(C(=O)c3nsc4ccccc34)CC2)cc1 | inactive | – |
| Cc1ccc(-c2nn(-c3ccccc3)cc2CSC(=N)N)cc1 | inconclusive: 29.1 µM [cytotoxic, single point] | – |
